Test results: patent US20070135497A1, “Biphenyl derivative or its salt, and pesticide containing it as an active ingredient” (ISHIHARA SANGYO KAISHA LTD., priority 2003, published 2007)
Some entries share one result that the patent states for a list of compounds.

What follows are compounds tested on fungi of powdery mildew (wheat powdery mildew) (assay: Test on preventive effect against wheat powdery mildew). Details: 100 ppm, foliar spray before inoculation, area of sporogony 6 to 7 days after inoculation.
Format: in vivo, Wheat (cultivar: Norin-61-go)
For `CNC(=O)c1cccc(-c2c(F)ccc(Cl)c2Cl)c1` [1-83], the controlling index was 4 (Area of lesions, number of lesions or area of sporogony is less than 10% of non-treated plot). For `CCNC(=O)c1cccc(-c2c(Cl)ccc(C(F)(F)F)c2Cl)c1` [1-127, N-ethyl-3-(2′,6′-dichloro-3′-trifluoromethylphenyl)benzamide], the controlling index was 4 (Area of lesions, number of lesions or area of sporogony is less than 10% of non-treated plot). For `CCN(CC)C(=O)c1cccc(-c2c(Cl)ccc(C)c2Cl)c1` [1-92], the controlling index was 4 (Area of lesions, number of lesions or area of sporogony is less than 10% of non-treated plot). `CNC(=O)c1cccc(-c2c(Cl)ccc(Cl)c2F)c1` [1-84] was tested, and the controlling index was 4 (Area of lesions, number of lesions or area of sporogony is less than 10% of non-treated plot).

Same assay, conditions: 200 ppm, foliar spray before inoculation, area of sporogony 6 to 7 days after inoculation
`CNC(=O)c1cccc(-c2cc(Cl)c(Cl)cc2Cl)c1` [1-67] was tested, and the controlling index was 4 (Area of lesions, number of lesions or area of sporogony is less than 10% of non-treated plot). In the case of `Cc1ccccc1-c1cc(N)ccc1C` [2-18], the controlling index is reported as 4 (Area of lesions, number of lesions or area of sporogony is less than 10% of non-treated plot).

Same assay, conditions: 400 ppm, foliar spray before inoculation, area of sporogony 6 to 7 days after inoculation
In the case of `O=CN(Cc1ccc(Cl)nc1)c1cccc(-c2c(Cl)cccc2Cl)c1` [1-214], the controlling index is reported as 4 (Area of lesions, number of lesions or area of sporogony is less than 10% of non-treated plot). For `CCN(CC)Cc1cccc(-c2c(C)cc(C)cc2C)c1` [1-12], the controlling index was 4 (Area of lesions, number of lesions or area of sporogony is less than 10% of non-treated plot). With `CC(=O)Nc1cccc(-c2c(Cl)ccc(Cl)c2Cl)c1` [1-220] the controlling index was 4 (Area of lesions, number of lesions or area of sporogony is less than 10% of non-treated plot). For `CN(Cc1ccccc1)C(=O)c1cccc(-c2c(F)cccc2Cl)c1` [1-190], the controlling index was 4 (Area of lesions, number of lesions or area of sporogony is less than 10% of non-treated plot). `C=CC(=O)Nc1cccc(-c2c(C)cc(C)cc2C)c1` [1-58] was tested, and the controlling index was 4 (Area of lesions, number of lesions or area of sporogony is less than 10% of non-treated plot). `CC(=O)Nc1cccc(-c2c(Cl)cccc2Cl)c1` [1-200] was tested, and the controlling index was 4 (Area of lesions, number of lesions or area of sporogony is less than 10% of non-treated plot). In the case of `C=NNc1cccc(-c2c(C)cc(C)cc2C)c1` [1-60], the controlling index is reported as 4 (Area of lesions, number of lesions or area of sporogony is less than 10% of non-treated plot). In the case of `CNC(=O)c1cccc(-c2cc(OC)ccc2Cl)c1` [1-138], the controlling index is reported as 4 (Area of lesions, number of lesions or area of sporogony is less than 10% of non-treated plot). `CCC(=O)Nc1cccc(-c2c(C)cc(C)cc2C)c1` [1-46] was tested, and the controlling index was 4 (Area of lesions, number of lesions or area of sporogony is less than 10% of non-treated plot). In the case of `CC(=O)N(C)c1cccc(-c2c(C)cc(C)cc2C)c1` [1-45], the controlling index is reported as 4 (Area of lesions, number of lesions or area of sporogony is less than 10% of non-treated plot). `CCCCNC(=O)c1cccc(-c2c(C)cc(C)cc2C)c1` [Compound No. 1-5] was tested, and the controlling index was 4 (Area of lesions, number of lesions or area of sporogony is less than 10% of non-treated plot). In the case of `CNC(=O)c1cccc(-c2c(C)cccc2C)c1` [1-141], the controlling index is reported as 4 (Area of lesions, number of lesions or area of sporogony is less than 10% of non-treated plot). In the case of `CNC(=O)c1ccc(C)c(-c2ccc(Cl)cc2Cl)c1` [2-19], the controlling index is reported as 4 (Area of lesions, number of lesions or area of sporogony is less than 10% of non-treated plot). In the case of `CNC(=O)c1cccc(-c2cc(Cl)ccc2Cl)c1` [1-139], the controlling index is reported as 4 (Area of lesions, number of lesions or area of sporogony is less than 10% of non-treated plot). With `CC(=O)Nc1cccc(-c2c(Cl)cc(Br)cc2Cl)c1` [1-205] the controlling index was 4 (Area of lesions, number of lesions or area of sporogony is less than 10% of non-treated plot). For `CNC(=O)c1cccc(-c2c(Cl)ccc(NC)c2Cl)c1` [1-105], the controlling index was 4 (Area of lesions, number of lesions or area of sporogony is less than 10% of non-treated plot). In the case of `CN(Cc1ccccc1Cl)C(=O)c1cccc(-c2c(Cl)cccc2Cl)c1` [1-263], the controlling index is reported as 4 (Area of lesions, number of lesions or area of sporogony is less than 10% of non-treated plot). In the case of `CCN(Cc1ccccc1)C(=O)c1cccc(-c2c(Cl)cccc2Cl)c1` [1-261], the controlling index is reported as 4 (Area of lesions, number of lesions or area of sporogony is less than 10% of non-treated plot). In the case of `CSCN(C)C(=O)c1cccc(-c2c(C)cc(C)cc2C)c1` [1-64], the controlling index is reported as 4 (Area of lesions, number of lesions or area of sporogony is less than 10% of non-treated plot). In the case of `CN(Cc1cccc(Cl)c1)C(=O)c1cccc(-c2c(Cl)cccc2Cl)c1` [1-258], the controlling index is reported as 4 (Area of lesions, number of lesions or area of sporogony is less than 10% of non-treated plot). For `CC(=O)N(C)Cc1cccc(-c2c(C)cc(C)cc2C)c1` [Compound No. 1-41, N-methyl-N-3-(2′,4′,6′-trimethylphenyl)benzylacetamide], the controlling index was 4 (Area of lesions, number of lesions or area of sporogony is less than 10% of non-treated plot). For `CN(Cc1cccnc1)C(=O)c1cccc(-c2c(Cl)cccc2Cl)c1` [1-240], the controlling index was 4 (Area of lesions, number of lesions or area of sporogony is less than 10% of non-treated plot). For `CNC(=O)c1cc(-c2c(C)cc(C)cc2C)ccc1Cl` [Compound No. 2-12, N-methyl-6-chloro-3-(2′,4′,6′-trimethylphenyl)benzamide], the controlling index was 4 (Area of lesions, number of lesions or area of sporogony is less than 10% of non-treated plot). `CC(=O)Nc1cccc(-c2c(C)cc(C)cc2C)c1` [Compound No. 1-44, 3-(2′,4′,6′-trimethylphenyl)acetanilide] was tested, and the controlling index was 4 (Area of lesions, number of lesions or area of sporogony is less than 10% of non-treated plot). In the case of `CNC(=O)c1cccc(-c2c(F)cccc2C(F)(F)F)c1` [1-69], the controlling index is reported as 4 (Area of lesions, number of lesions or area of sporogony is less than 10% of non-treated plot). In the case of `C#CCNC(=O)c1cccc(-c2c(Cl)cccc2Cl)c1` [1-169], the controlling index is reported as 4 (Area of lesions, number of lesions or area of sporogony is less than 10% of non-treated plot). `CCN(CC)C(=O)c1cccc(-c2c(Cl)cccc2Cl)c1` [1-157] was tested, and the controlling index was 4 (Area of lesions, number of lesions or area of sporogony is less than 10% of non-treated plot). In the case of `Cc1cc(C)c(-c2cccc(C(=O)N(C)c3ccccc3)c2)c(C)c1` [Compound No. 1-20], the controlling index is reported as 4 (Area of lesions, number of lesions or area of sporogony is less than 10% of non-treated plot). `C#CCN(C)c1cccc(-c2c(F)cccc2C(F)(F)F)c1` [1-245] was tested, and the controlling index was 4 (Area of lesions, number of lesions or area of sporogony is less than 10% of non-treated plot). In the case of `O=CN(Cc1cscn1)c1cccc(-c2c(Cl)cccc2Cl)c1` [1-215], the controlling index is reported as 4 (Area of lesions, number of lesions or area of sporogony is less than 10% of non-treated plot). In the case of `CNC(=O)c1cccc(-c2c(F)cccc2F)c1` [1-37], the controlling index is reported as 4 (Area of lesions, number of lesions or area of sporogony is less than 10% of non-treated plot). With `CN(C(=O)c1cccc(-c2c(Cl)cccc2Cl)c1)c1ccco1` [1-257] the controlling index was 4 (Area of lesions, number of lesions or area of sporogony is less than 10% of non-treated plot). With `O=CNc1cccc(-c2c(F)cccc2C(F)(F)F)c1` [1-244] the controlling index was 4 (Area of lesions, number of lesions or area of sporogony is less than 10% of non-treated plot). `C#CCN(C)C(=O)c1cccc(-c2c(C)cc(C(C)(C)C)cc2C)c1` [1-15] was tested, and the controlling index was 4 (Area of lesions, number of lesions or area of sporogony is less than 10% of non-treated plot). `CN(Cc1cccc(F)c1)C(=O)c1cccc(-c2c(Cl)cccc2Cl)c1` [1-176] was tested, and the controlling index was 4 (Area of lesions, number of lesions or area of sporogony is less than 10% of non-treated plot). In the case of `CNC(=O)c1cccc(-c2ccc(OC)cc2OC)c1` [1-137], the controlling index is reported as 4 (Area of lesions, number of lesions or area of sporogony is less than 10% of non-treated plot). In the case of `Nc1cccc(-c2c(Cl)cc(C(F)(F)F)cc2Cl)c1` [1-210], the controlling index is reported as 4 (Area of lesions, number of lesions or area of sporogony is less than 10% of non-treated plot). In the case of `CNC(=O)c1cccc(-c2c(Cl)ccc(O)c2Cl)c1` [1-107], the controlling index is reported as 4 (Area of lesions, number of lesions or area of sporogony is less than 10% of non-treated plot). For `CN(Cc1ccc(Cl)nc1)c1cccc(-c2c(F)cccc2C(F)(F)F)c1` [1-246], the controlling index was 4 (Area of lesions, number of lesions or area of sporogony is less than 10% of non-treated plot). With `CN(CCc1ccccc1)C(=O)c1cccc(-c2c(Cl)cccc2Cl)c1` [1-262] the controlling index was 4 (Area of lesions, number of lesions or area of sporogony is less than 10% of non-treated plot). With `CC(=O)NNc1cccc(-c2c(C)cc(C)cc2C)c1` [1-61] the controlling index was 4 (Area of lesions, number of lesions or area of sporogony is less than 10% of non-treated plot). `CN(Cc1ccc(C(F)(F)F)nc1)C(=O)c1cccc(-c2c(Cl)ccc(Cl)c2Cl)c1` [1-78] was tested, and the controlling index was 4 (Area of lesions, number of lesions or area of sporogony is less than 10% of non-treated plot). In the case of `CNC(=O)c1cccc(-c2ccc(Cl)cc2Cl)c1` [1-85], the controlling index is reported as 4 (Area of lesions, number of lesions or area of sporogony is less than 10% of non-treated plot). `CN(Cc1ccc(C(F)(F)F)cc1)C(=O)c1cccc(-c2c(Cl)cccc2Cl)c1` [1-178] was tested, and the controlling index was 4 (Area of lesions, number of lesions or area of sporogony is less than 10% of non-treated plot). With `CCN(C)C(=O)c1cccc(-c2c(C)cc(C)cc2C)c1` [1-3] the controlling index was 4 (Area of lesions, number of lesions or area of sporogony is less than 10% of non-treated plot). For `CCCCCCCN(C)C(=O)c1cccc(-c2c(C)cc(C)cc2C)c1` [1-6], the controlling index was 4 (Area of lesions, number of lesions or area of sporogony is less than 10% of non-treated plot). `C#CCN(C)C(=O)c1cccc(-c2c(F)cccc2Cl)c1` [1-243] was tested, and the controlling index was 4 (Area of lesions, number of lesions or area of sporogony is less than 10% of non-treated plot). For `C#CCN(C)Cc1cccc(-c2c(C)cc(C)cc2C)c1` [Compound No. 1-28, N-methyl-N-propargyl-3-(2′,4′,6′-trimethylphenyl)benzylamine], the controlling index was 4 (Area of lesions, number of lesions or area of sporogony is less than 10% of non-treated plot).
